This assay has as its target T1, ID2-Myc-FLAG (Inhibitor of DNA binding 2, epitope-tagged) (UniProt Q02363).
T1 sequence: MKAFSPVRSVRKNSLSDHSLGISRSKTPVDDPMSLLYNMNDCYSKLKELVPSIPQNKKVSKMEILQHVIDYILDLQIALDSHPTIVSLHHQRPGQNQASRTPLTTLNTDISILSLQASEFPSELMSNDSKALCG
In words: co-IP; ID2-Myc-FLAG and F-78(WT) both overexpressed; IP with anti-Myc antibody.

Sequences of proteins named here, by UniProt entry; tags and fusion partners are left off. A change or cut given only in a name is not applied to a line headed by its entry.
UniProt P11021: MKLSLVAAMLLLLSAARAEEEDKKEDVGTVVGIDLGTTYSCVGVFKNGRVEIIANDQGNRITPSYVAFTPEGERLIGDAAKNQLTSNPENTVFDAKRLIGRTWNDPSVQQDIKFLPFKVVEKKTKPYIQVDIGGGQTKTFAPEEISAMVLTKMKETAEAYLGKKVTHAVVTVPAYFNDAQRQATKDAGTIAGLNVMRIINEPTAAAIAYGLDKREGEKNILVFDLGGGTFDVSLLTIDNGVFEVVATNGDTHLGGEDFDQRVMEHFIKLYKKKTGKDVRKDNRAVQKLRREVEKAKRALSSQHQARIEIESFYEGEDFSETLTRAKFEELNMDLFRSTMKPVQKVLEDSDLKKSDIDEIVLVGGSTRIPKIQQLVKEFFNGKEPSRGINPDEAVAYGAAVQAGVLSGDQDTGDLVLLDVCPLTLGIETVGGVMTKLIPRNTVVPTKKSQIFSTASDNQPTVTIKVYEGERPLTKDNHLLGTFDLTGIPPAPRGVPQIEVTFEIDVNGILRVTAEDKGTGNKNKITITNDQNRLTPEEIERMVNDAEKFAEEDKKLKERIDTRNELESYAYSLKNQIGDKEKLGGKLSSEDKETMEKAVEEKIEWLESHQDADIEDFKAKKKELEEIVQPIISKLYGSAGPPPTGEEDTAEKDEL

Results are given in words; binding and its absence hold for the method and conditions named. In cells and extracts the contact can be indirect. Binding can be weak; no strength is given. Sequences can lack the tags named with a protein.

On to “F-78(WT), FLAG-tagged GRP78 (from UniProt P11021)”, for which the binding entry is “binds”.

These data come from paper PMC10400976.
